“And” between values parts separate entries of the source, which are not always exact repeats. Equal entries are not always repeated. Some of the results follow. Further columns of the screen follow, without active or inactive calls. The list favours compounds with an active or inconclusive main result. Potencies come from curve fits of mixed quality, noted in brackets.
Assay: qHTS Assay for Modulators of Lamin A Splicing
Settings: HeLa LMNA splicing GFP/RFP minigene ratio, 48 h
Summary of the method: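 S3 HeLa stable clones carrying a lamin A-EGFP splicing minigene plus DsRed2 were seeded at 600 cells/well in Opti-MEM with 2% FBS, pin-dosed and incubated 48 h at 37°C. Acumen cytometry (488 nm) gave the GFP/RFP total-intensity ratio.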

[1] = measured here: GFP splicing reporter channel
[2] = measured here: RFP viability control channel

| Structure (SMILES) | AC50 [1] | AC50 [2] |
| --- | --- | --- |
| COc1cccc(CNC(=O)c2cc3cc(C)ccc3n2C)c1 | 3.16 µM [falling, partial curve] | 12.6 µM [rising, partial curve] |
| Cc1no[n+]([O-])c1COc1cccc(/C=C2\N=C(c3ccccc3)OC2=O)c1 | – | 20 µM [rising, single point] |
| CC(=O)c1c(C)n(-c2ccccc2)c2ccc(O)cc12 | – | 31.6 µM [rising, single point] |
| Cc1cccc(OCc2nnc(SCC(=O)Nc3cccc(C(=O)N4CCOCC4)c3)n2C)c1 | 35.5 µM [rising, single point] | – |
| Cc1cc(C(=O)CSc2nnnn2-c2ccccc2)c(C)n1-c1ccc2c(c1)OCO2 | 8.91 µM [rising, partial curve] | 7.94 µM [rising, partial curve] |
| COCCn1c(=O)c(-c2ccccc2)nc2cnc(Nc3cccc(OC)c3)nc21 | 20 µM [falling, partial curve, poor fit] | 15.8 µM [falling, partial curve] |
| CC(O)C(NS(=O)(=O)c1ccc(Cl)cc1)C(=O)OCc1nnc(-c2ccccc2)o1 (stereo not given) | 35.5 µM [falling, partial curve, poor fit] | 35.5 µM [falling, partial curve, poor fit] |
| C#Cc1cccc(-n2nnc(C(C)=O)c2C)c1 | – | 7.08 µM [falling, full curve] |
| CCOC(=O)N1CCN(C(=O)c2ccc3c(=O)n4c(nc3c2)CCCCC4)CC1 | 0.178 µM [falling, full curve, poor fit] | – |
| CC#CCN1C(=O)N[C@@H](c2ccccc2)C(C(=O)OC)=C1C | – | 0.316 µM [falling, full curve, poor fit] |
| COc1cccc(-c2cncnc2NCc2ccccc2OC)c1 | 22.4 µM [falling, single point] | 31.6 µM [falling, single point] |
| O=C1c2cccc3cccc(c23)C(=O)N1CCCN1CCN(c2ccc(F)cc2)CC1 | 5.62 µM [rising, partial curve, poor fit] | 11.2 µM [rising, partial curve, poor fit] |
| CC1CC2(C)Oc3ccccc3CC2C(C)C1CNCCCN(C)C (stereo not given) | 25.1 µM [falling, single point] | – |
| O=C(NNc1ccc(C(F)(F)F)cc1[N+](=O)[O-])c1ccc(NS(=O)(=O)c2ccc(F)cc2)cc1 | 35.5 µM [falling, single point] | 35.5 µM [falling, single point] |
| CCc1ccc(C(=O)CN(C#N)c2nc(C)cc(C)n2)cc1 | 25.1 µM [falling, single point] | 35.5 µM [falling, single point] |
| c1ccc2cc3c(NCCN4CCOCC4)ccnc3cc2c1 | 35.5 µM [falling, single point] | 15.8 µM [falling, single point] |
| Cc1ccc(O)c(C(=O)c2cnc3c(c2)c(C)nn3-c2ccccc2)c1 | 35.5 µM [rising, single point] | 35.5 µM [rising, single point] |
| COc1ccc(OC)c(C(=O)c2coc3ccc(O)cc23)c1 | 1.58 µM [rising, partial curve, poor fit] | 3.98 µM [rising, partial curve] |
| CCOC(=O)N1CCN(Cc2nc(-c3ccc(C)cc3)no2)CC1 | – | 11.2 µM [rising, single point] |
| O=C(CSc1nc2c([nH]c3ccccc32)c(=O)n1-c1cccc(Cl)c1)N1CCOCC1 | 2 µM [falling, partial curve] | 2.82 µM [falling, partial curve] and 25.1 µM [falling, single point] |
| Cc1ccc(Cn2cnc3ccccc32)cc1C | 0.112 µM [rising, partial curve] | 12.6 µM [rising, partial curve] |
| O=C(CCCn1c(SCC(=O)NCCc2ccccc2)nc2ccccc2c1=O)NCC1CCCO1 (stereo not given) | 0.00891 µM [falling, full curve, poor fit] | 0.00708 µM [falling, full curve, poor fit] |
| CCCCN(CC)S(=O)(=O)c1ccc(C(=O)Nc2nnc(CSC)o2)cc1 | 7.94 µM [falling, partial curve] | 20 µM [falling, partial curve] |
| O=C(c1cc(-c2ccc3c(c2)OCO3)on1)N1CCN(c2ccccc2)CC1 | 15.8 µM [rising, partial curve, poor fit] | 25.1 µM [rising, single point] |
| CCc1ccc(OCC(=O)Nc2cc(S(=O)(=O)CC)ccc2O)cc1 | 22.4 µM [rising, single point] | 22.4 µM [rising, single point] |
| COc1ccccc1/C=C/C(=O)Nc1ccc2c(c1)OCCO2 | 11.2 µM [rising, single point] | 22.4 µM [rising, single point] |

| Structure (SMILES) | AC50 [1] | AC50 [2] |
| --- | --- | --- |
| O=[N+]([O-])c1cc(F)c2cccnc2c1O | 35.5 µM [falling, single point] | 6.31 µM [falling, partial curve] |
| Cn1c(N)c(C(=O)COC(=O)c2ccnc3ccccc23)c(=O)n(C)c1=O | – | 2.51 µM [falling, partial curve, poor fit] |
| COCC(C)n1c(C)cc(C(=O)CSc2cc(C)c3ccccc3n2)c1C (stereo not given) | 11.2 µM [rising, single point] | 20 µM [rising, single point] |
| O=C(Nc1ccc2nc3n(c(=O)c2c1)CCCCC3)c1ccccn1 | – | 28.2 µM [rising, single point] |
| Cc1ccc(NC(=O)Cn2ccsc2=N)cc1S(=O)(=O)N(C)C | 20 µM [rising, partial curve] | 3.16 µM [rising, partial curve, poor fit] |
| O=C(Nc1ccc2oc(-c3ccc4ccccc4c3)nc2c1)c1ccc2c(c1)OCCO2 | – | 5.62 µM [rising, partial curve] |
| CCc1ccccc1N(C)S(=O)(=O)c1ccc2[nH]cc(C(=O)N3CCc4ccccc43)c(=O)c2c1 | 35.5 µM [rising, single point] | 35.5 µM [rising, single point] |
| Nc1nc(SCc2nc3sc4c(c3c(=O)[nH]2)CCCC4)n[nH]1 | – | 11.2 µM [rising, partial curve, poor fit] |
| O=[N+]([O-])c1cc(/C=N/OCc2c(Cl)cccc2Cl)ccc1N1CCOCC1 | – | 11.2 µM [rising, partial curve, poor fit] |
| O=C(CN1N=C(c2ccccc2)CCC1=O)NCc1ccccc1 | 3.16 µM [falling, single point] | 3.98 µM [falling, single point] |
| CC(/C=C/c1ccccc1)=N\NC(=O)Cn1nc(C)cc1C | 2 µM [rising, partial curve] | – |
| C(=N\Nc1ncnc2sc3c(c12)CCC3)/c1cccs1 | 10 µM [falling, partial curve] | 5.62 µM [falling, full curve] |
| Cc1ccc(NC(=O)Cn2nnc(-c3ccccc3NC(=O)c3cccs3)n2)cc1 | – | 2 µM [rising, full curve] |
| O=c1oc2ccccc2cc1-c1csc(Cc2nc(-c3ccc(Br)cc3)cs2)n1 | – | 3.55 µM [rising, single point] |
| O=C(CSc1nnnn1-c1ccccc1Cl)Nc1ccc2c(c1)OCCO2 | – | 12.6 µM [rising, single point] |
| N#C/C(=C\c1cccc(O)c1)C(=O)Nc1ccc2c(c1)OCCO2 | 14.1 µM [falling, partial curve] | 35.5 µM [falling, partial curve, poor fit] |
| C=CCn1c(SCC(=O)c2cccs2)nc2sc(CC)cc2c1=O | 35.5 µM [rising, single point] | – |
| CCOc1ccc(-n2c(SCC(=O)NC(C)CC)nc3n[nH]c(C)c3c2=N)cc1 (stereo not given) | 1.78 µM [rising, full curve, poor fit] | 3.55 µM [rising, full curve, poor fit] |
| CN(C)CCCCOc1ccc(Br)cc1Cl | – | 0.112 µM [rising, full curve] |
| Cc1cccc(N=Nc2c(N)n[nH]c2-c2ccc(Cl)cc2)c1 | 0.0316 µM [falling, single point] | 0.1 µM [falling, partial curve] |
| O=C(CCc1nc(-c2ccccc2F)no1)NC1CCCCCC1 | – | 14.1 µM [rising, single point] |
| CCCSC1=N/C(=C/c2ccsc2)C(=O)N1c1ccccc1 | – | 7.94 µM [rising, partial curve] |
| C/C(=N\NC(=O)CSCc1ccc([N+](=O)[O-])cc1)c1cccc(Br)c1 | – | 12.6 µM [rising, partial curve, poor fit] |
| COc1ccccc1CCn1c(=O)cnc2cncnc21 | 6.31 µM [falling, full curve] | 6.31 µM [falling, full curve] |
| COc1ccccc1CC(=O)N1CCN(c2ccc([N+](=O)[O-])cc2)CC1 | – | 0.282 µM [falling, full curve] |
| Clc1ccc2nc(C3CCN(Cc4nnnn4C4CCCCC4)CC3)[nH]c2c1 | – | 22.4 µM [rising, single point] |

Arranged by length of the SMILES (smallest number first): some entries from above.

| Structure (SMILES) | AC50 [1] | AC50 [2] |
| --- | --- | --- |
| CN(C)CCCCOc1ccc(Br)cc1Cl | – | 0.112 µM [rising, full curve] |
| O=[N+]([O-])c1cc(F)c2cccnc2c1O | 35.5 µM [falling, single point] | 6.31 µM [falling, partial curve] |
| C(=N\Nc1ncnc2sc3c(c12)CCC3)/c1cccs1 | 10 µM [falling, partial curve] | 5.62 µM [falling, full curve] |
| O=C(CN1N=C(c2ccccc2)CCC1=O)NCc1ccccc1 | 3.16 µM [falling, single point] | 3.98 µM [falling, single point] |
| CC(/C=C/c1ccccc1)=N\NC(=O)Cn1nc(C)cc1C | 2 µM [rising, partial curve] | – |
| Cc1cccc(N=Nc2c(N)n[nH]c2-c2ccc(Cl)cc2)c1 | 0.0316 µM [falling, single point] | 0.1 µM [falling, partial curve] |
| O=C(Nc1ccc2nc3n(c(=O)c2c1)CCCCC3)c1ccccn1 | – | 28.2 µM [rising, single point] |
| O=C(CSc1nnnn1-c1ccccc1Cl)Nc1ccc2c(c1)OCCO2 | – | 12.6 µM [rising, single point] |
| Nc1nc(SCc2nc3sc4c(c3c(=O)[nH]2)CCCC4)n[nH]1 | – | 11.2 µM [rising, partial curve, poor fit] |
| COCC(C)n1c(C)cc(C(=O)CSc2cc(C)c3ccccc3n2)c1C (stereo not given) | 11.2 µM [rising, single point] | 20 µM [rising, single point] |
| Clc1ccc2nc(C3CCN(Cc4nnnn4C4CCCCC4)CC3)[nH]c2c1 | – | 22.4 µM [rising, single point] |
| COc1ccccc1CC(=O)N1CCN(c2ccc([N+](=O)[O-])cc2)CC1 | – | 0.282 µM [falling, full curve] |
| Cc1ccc(NC(=O)Cn2nnc(-c3ccccc3NC(=O)c3cccs3)n2)cc1 | – | 2 µM [rising, full curve] |
| O=[N+]([O-])c1cc(/C=N/OCc2c(Cl)cccc2Cl)ccc1N1CCOCC1 | – | 11.2 µM [rising, partial curve, poor fit] |
| O=C(Nc1ccc2oc(-c3ccc4ccccc4c3)nc2c1)c1ccc2c(c1)OCCO2 | – | 5.62 µM [rising, partial curve] |
| CCc1ccccc1N(C)S(=O)(=O)c1ccc2[nH]cc(C(=O)N3CCc4ccccc43)c(=O)c2c1 | 35.5 µM [rising, single point] | 35.5 µM [rising, single point] |

From PubChem BioAssay AID1487 (National Center for Advancing Translational Sciences (NCATS), 2009)
